Results as given in the supplement of paper PMC10849652.
The other results are listed elsewhere or left out. Residues, ends and D or L forms follow the SMILES beside them. *: point of attachment. Cbz = O=C(OCc1ccccc1)*

Sequences of proteins named here, by UniProt entry; tags and fusion partners are left off. A change or cut given only in a name is not applied to a line headed by its entry.
UniProt Q9BVV7: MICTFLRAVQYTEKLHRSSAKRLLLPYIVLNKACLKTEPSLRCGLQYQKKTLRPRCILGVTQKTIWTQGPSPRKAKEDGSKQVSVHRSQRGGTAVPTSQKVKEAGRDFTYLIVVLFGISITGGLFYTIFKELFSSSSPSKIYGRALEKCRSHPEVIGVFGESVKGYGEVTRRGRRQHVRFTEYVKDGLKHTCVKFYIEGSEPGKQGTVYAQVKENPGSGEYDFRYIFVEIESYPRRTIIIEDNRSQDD
UniProt Q07157: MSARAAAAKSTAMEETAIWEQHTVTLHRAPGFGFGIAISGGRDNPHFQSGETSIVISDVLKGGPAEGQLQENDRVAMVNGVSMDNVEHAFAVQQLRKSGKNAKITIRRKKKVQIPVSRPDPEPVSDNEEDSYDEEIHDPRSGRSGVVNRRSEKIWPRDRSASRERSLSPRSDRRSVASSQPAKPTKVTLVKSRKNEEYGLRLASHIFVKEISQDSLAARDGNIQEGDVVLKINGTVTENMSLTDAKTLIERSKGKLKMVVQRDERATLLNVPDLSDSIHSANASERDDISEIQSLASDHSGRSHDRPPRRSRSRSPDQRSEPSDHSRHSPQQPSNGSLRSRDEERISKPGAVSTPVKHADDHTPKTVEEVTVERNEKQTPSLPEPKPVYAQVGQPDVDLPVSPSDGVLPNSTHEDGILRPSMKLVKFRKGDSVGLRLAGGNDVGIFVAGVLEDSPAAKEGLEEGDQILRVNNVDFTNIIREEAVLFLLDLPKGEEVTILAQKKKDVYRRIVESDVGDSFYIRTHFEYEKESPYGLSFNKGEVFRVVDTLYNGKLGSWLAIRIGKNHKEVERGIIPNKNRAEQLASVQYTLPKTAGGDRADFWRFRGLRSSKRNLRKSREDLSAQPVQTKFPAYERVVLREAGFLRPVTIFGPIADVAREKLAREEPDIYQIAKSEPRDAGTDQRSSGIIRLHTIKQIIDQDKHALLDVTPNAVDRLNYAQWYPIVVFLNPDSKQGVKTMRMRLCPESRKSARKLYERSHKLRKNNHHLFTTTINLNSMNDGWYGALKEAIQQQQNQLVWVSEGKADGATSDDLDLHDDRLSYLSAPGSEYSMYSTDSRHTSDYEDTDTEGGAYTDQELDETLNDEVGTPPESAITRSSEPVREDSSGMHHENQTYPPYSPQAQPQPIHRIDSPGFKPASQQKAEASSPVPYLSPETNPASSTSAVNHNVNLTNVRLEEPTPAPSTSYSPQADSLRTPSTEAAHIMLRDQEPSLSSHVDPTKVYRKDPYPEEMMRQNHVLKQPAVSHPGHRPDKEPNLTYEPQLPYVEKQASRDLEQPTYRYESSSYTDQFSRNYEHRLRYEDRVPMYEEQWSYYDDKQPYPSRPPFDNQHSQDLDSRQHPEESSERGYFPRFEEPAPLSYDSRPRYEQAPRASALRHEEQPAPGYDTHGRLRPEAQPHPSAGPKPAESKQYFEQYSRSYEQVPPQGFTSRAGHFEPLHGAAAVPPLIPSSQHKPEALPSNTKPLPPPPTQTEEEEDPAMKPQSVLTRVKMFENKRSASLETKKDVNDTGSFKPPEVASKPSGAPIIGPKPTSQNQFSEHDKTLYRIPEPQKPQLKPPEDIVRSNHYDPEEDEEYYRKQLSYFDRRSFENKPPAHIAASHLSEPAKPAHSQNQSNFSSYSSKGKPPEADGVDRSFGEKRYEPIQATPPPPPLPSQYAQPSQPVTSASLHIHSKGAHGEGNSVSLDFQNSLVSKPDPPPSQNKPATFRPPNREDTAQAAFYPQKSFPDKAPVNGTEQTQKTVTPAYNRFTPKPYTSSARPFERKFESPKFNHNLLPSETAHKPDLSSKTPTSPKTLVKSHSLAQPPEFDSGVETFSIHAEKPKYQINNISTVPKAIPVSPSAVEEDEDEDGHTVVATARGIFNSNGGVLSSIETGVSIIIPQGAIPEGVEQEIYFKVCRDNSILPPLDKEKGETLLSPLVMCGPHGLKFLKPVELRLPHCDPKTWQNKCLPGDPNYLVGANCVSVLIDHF
UniProt Q01085: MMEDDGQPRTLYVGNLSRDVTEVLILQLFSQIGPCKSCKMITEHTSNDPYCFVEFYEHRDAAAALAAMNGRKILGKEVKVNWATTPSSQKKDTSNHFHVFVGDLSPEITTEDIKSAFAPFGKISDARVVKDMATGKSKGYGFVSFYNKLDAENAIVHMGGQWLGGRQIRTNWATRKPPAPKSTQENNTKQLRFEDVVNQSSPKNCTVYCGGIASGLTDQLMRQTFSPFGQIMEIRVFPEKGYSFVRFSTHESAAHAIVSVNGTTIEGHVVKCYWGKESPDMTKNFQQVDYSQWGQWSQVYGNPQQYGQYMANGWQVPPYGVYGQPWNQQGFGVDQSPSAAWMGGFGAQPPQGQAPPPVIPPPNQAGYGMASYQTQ
UniProt Q9BQ70: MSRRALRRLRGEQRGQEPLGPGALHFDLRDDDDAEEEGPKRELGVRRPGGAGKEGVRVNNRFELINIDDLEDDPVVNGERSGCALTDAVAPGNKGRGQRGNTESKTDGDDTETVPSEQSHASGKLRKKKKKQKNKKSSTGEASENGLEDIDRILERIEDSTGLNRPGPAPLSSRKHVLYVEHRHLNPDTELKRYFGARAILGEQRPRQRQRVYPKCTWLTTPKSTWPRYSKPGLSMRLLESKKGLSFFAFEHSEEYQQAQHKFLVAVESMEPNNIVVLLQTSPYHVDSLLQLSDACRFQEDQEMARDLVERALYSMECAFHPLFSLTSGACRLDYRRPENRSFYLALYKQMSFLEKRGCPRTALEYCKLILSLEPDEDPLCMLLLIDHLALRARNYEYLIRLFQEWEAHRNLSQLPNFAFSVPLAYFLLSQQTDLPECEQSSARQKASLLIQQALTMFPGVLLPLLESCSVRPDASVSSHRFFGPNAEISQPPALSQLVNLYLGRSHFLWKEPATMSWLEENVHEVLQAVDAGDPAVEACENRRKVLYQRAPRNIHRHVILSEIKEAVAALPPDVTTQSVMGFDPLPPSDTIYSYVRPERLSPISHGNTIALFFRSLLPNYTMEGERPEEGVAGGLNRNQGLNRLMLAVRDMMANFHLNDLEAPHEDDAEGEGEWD

Legend:
Assay in all cases: log2 fold change, soluble protein after heating vs DMSO (PISA); higher = thermal stabilisation; K562 cells, 10 uM, 30 min; active = over 0.2 and 3.5 SD of the protein, either way, in both replicates (recomputed)
[1] = compound: C#Cc1cccc(Nc2ncnc3cc(OCCOC)c(OCCOC)cc23)c1 [erlotinib]
Procedure, shortened: (§1)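 Quantification of soluble protein used TMTpro 16plex LC-MS/MS, with channel sums equalised. Samples were the supernatant after 21,000xg for 90 min of pooled aliquots from K562 cells (2×10^6 cells/mL) treated with 10 μM compound for 30 min, heated for 3 min over 48°C-58°C, and extracted in PBS with 0.5% NP-40 at 4°C. Values, from duplicates, describe thermal stability against control samples on a log2 fold-change scale.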

[2] = compound: C/C(=N\NC(=O)C1=CC(=CC=C1)S(=O)(=O)N2CCOCC2)/C3=C(C=CC(=C3)Cl)O
Procedure, shortened: as §1

[3] = compound: C1=CC(=C(C=C1Cl)C2=NC3=NC=CN=C3C(=N2)NC4=CC=NC=C4)F
Procedure, shortened: as §1

[4] = compound: C1=CC(=CC=C1C2=NC3=C(N2)C=C(C=C3)C(=O)N)OC4=CC=C(C=C4)Cl
Procedure, shortened: as §1

[5] = compound: C1=CC2=C(C=CC(=C2)/C=C\3/C(=O)NC(=NCC4=CC=CS4)S3)N=C1
Procedure, shortened: as §1

[6] = compound: C1=CC2=NC=CN=C2C=C1/C=C/3\C(=O)NC(=O)S3
Procedure, shortened: as §1

[7] = compound: C1=CC=C(C=C1)C2=NC(=C(N2)C3=CC=NC=C3)C4=CC(=C(C=C4)Cl)O
Procedure, shortened: as §1

[8] = compound: C1=CC=C2C(=C1)C3=NNC4=CC=CC(=C43)C2=O
Procedure, shortened: as §1

[9] = compound: C1CCN(C1)C(=O)NC2=CC=CC(=C2)NC3=NC=C(C(=N3)NCCC4=CN=CN4)Br
Procedure, shortened: as §1

[10] = compound: C1CN(CCC1(CC2=CC=C(C=C2)Cl)N)C3=NC=NC4=C3C=CN4
Procedure, shortened: as §1

[11] = compound: C1COCCN1CCN2C3=CC=CC=C3N=C2NC(=O)C4=CC(=CC=C4)[N+](=O)[O-] [IRAK-1-4 Inhibitor I]
Procedure, shortened: as §1

[12] = compound: C=CC(=O)N1CCC[C@@H](n2nc(-c3ccc(Oc4ccccc4)cc3)c3c(N)ncnc32)C1 [ibrutinib]
Procedure, shortened: as §1

[13] = compound: CC(=O)c1cnc2ccc(-c3cc(Cl)c(O)c(Cl)c3)nc2c1N[C@H]1CC[C@H](CN(C)C)CC1
Procedure, shortened: as §1

[14] = compound: CC(C)(C)Cn1c(N)nc2ccc(-c3[nH]c(C(C)(C)C)nc3-c3ccc(F)cc3)nc21 [ralimetinib]
Procedure, shortened: as §1

[15] = compound: CC(C)(O)CC(=O)NCCn1ccc2ncnc(Nc3ccc(Oc4cccc(C(F)(F)F)c4)c(Cl)c3)c21
Procedure, shortened: as §1

[16] = compound: CC(C)C1=C2N=C(C=C(N2N=C1)NCC3=CC=CC=C3)NCCCCCCN
Procedure, shortened: as §1

[17] = compound: CC(C)C[C@@H](C=O)NC(=O)[C@H](CC(C)C)NC(=O)[C@H](CC(C)C)NC(=O)OCc1ccccc1
Procedure, shortened: as §1

[18] = compound: CC(C)N(C[C@H]1O[C@@H](n2cnc3c(N)ncnc32)[C@H](O)[C@@H]1O)[C@H]1C[C@@H](CCc2nc3cc(C(C)(C)C)ccc3[nH]2)C1 [pinometostat]
Procedure, shortened: as §1

[19] = compound: CC1=C(C2=C(C=C1)C(=O)C3=CC=CC=C3N2CCCN)C
Procedure, shortened: as §1

Row | Target | log2 fold change [1] | log2 fold change [2] | log2 fold change [3] | log2 fold change [4] | log2 fold change [5] | log2 fold change [6] | log2 fold change [7] | log2 fold change [8] | log2 fold change [9] | log2 fold change [10] | log2 fold change [11] | log2 fold change [12] | log2 fold change [13] | log2 fold change [14] | log2 fold change [15] | log2 fold change [16] | log2 fold change [17] | log2 fold change [18] | log2 fold change [19]
1 | TIMM21 (UniProt Q9BVV7) | inactive: 0.026 | inactive: 0.068 | inactive: 0.004 | inactive: -0.008 | inactive: 0.035 | inactive: -0.001 | inactive: -0.001 | inactive: 0.081 | inactive: -0.002 | inactive: 0.021 | inactive: -0.009 | inactive: -0.02 | inactive: -0.026 | inactive: -0.01 | inactive: 0.011 | inactive: -0.169 | inactive: 0.099 | inactive: -0.02 | inactive: 0.063
2 | TJP1 (UniProt Q07157) | inactive: 0.095 | inactive: 0.072 | inactive: 0.022 | inactive: -0.015 | inactive: 0.013 | inactive: -0.135 | inactive: 0.003 | inactive: -0.029 | inactive: -0.03 | inactive: -0.035 | inactive: -0.033 | inactive: 0.03 | active: -0.443 | inactive: 0.028 | inactive: -0.02 | inactive: -0.003 | inactive: 0.014 | inactive: 0.037 | inactive: 0.034
3 | TIAL1 isoform 2 (UniProt Q01085) | inactive: 0.013 | inactive: -0.004 | inactive: 0.002 | inactive: 0 | inactive: 0.02 | inactive: 0.008 | inactive: -0.026 | inactive: 0.018 | inactive: 0.032 | inactive: -0.004 | inactive: 0.044 | inactive: 0.011 | inactive: -0.035 | inactive: -0.05 | inactive: 0.001 | inactive: 0.106 | inactive: 0.019 | inactive: -0.039 | active: 0.238
4 | TCF25 (UniProt Q9BQ70) | – | inactive: -0.323 | inactive: -0.182 | – | inactive: -0.175 | – | inactive: 0.07 | inactive: 0.026 | inactive: -0.075 | inactive: 0.011 | inactive: 0.059 | – | inactive: -0.319 | inactive: 0.134 | inactive: -0.015 | – | inactive: 0.194 | inactive: 0.05 | inactive: -0.158
